Results are given in words; binding and its absence hold for the method and conditions named. Binding seen in cells or lysates may run through a third protein. Here binding means that the protein was enriched with, or labelled near, the bait; the list need not be complete. Values belong to the binder of their own block, whether it stands above or below them.
Target: myc-RCC2 (wild-type RCC2) (human) (UniProt Q9P258)
Assay: affinity purification with mass spectrometry; MDA-MB-231 transfected with myc-RCC2 for 48 h, MG132 at 25 mM for 3 h, immunoprecipitation with anti-myc antibodies, silver staining and mass spectrometry

The chains behind the UniProt entries cited, without tags or fusion partners.
UniProt Q9P258: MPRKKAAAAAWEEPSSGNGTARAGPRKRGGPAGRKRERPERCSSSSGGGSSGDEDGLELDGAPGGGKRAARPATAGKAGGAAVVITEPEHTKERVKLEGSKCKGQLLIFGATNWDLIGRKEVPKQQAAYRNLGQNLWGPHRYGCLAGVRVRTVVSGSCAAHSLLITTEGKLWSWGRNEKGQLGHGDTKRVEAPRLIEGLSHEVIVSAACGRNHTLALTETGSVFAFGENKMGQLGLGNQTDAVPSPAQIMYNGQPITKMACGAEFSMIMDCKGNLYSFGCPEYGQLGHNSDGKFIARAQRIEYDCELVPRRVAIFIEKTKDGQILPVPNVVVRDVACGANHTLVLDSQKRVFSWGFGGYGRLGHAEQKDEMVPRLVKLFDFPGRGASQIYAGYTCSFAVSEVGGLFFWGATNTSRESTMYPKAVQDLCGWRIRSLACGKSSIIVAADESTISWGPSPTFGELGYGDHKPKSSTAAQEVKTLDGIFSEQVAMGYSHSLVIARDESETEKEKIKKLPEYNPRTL

binding: binds
B1: HNRNPR (protein, UniProt O43390 1-633)
chain: MANQVNGNAVQLKEEEEPMDTSSVTHTEHYKTLIEAGLPQKVAERLDEIFQTGLVAYVDLDERAIDALREFNEEGALSVLQQFKESDLSHVQNKSAFLCGVMKTYRQREKQGSKVQESTKGPDEAKIKALLERTGYTLDVTTGQRKYGGPPPDSVYSGVQPGIGTEVFVGKIPRDLYEDELVPLFEKAGPIWDLRLMMDPLSGQNRGYAFITFCGKEAAQEAVKLCDSYEIRPGKHLGVCISVANNRLFVGSIPKNKTKENILEEFSKVTEGLVDVILYHQPDDKKKNRGFCFLEYEDHKSAAQARRRLMSGKVKVWGNVVTVEWADPVEEPDPEVMAKVKVLFVRNLATTVTEEILEKSFSEFGKLERVKKLKDYAFVHFEDRGAAVKAMDEMNGKEIEGEEIEIVLAKPPDKKRKERQAARQASRSTAYEDYYYHPPPRMPPPIRGRGRGGGRGGYGYPPDYYGYEDYYDDYYGYDYHDYRGGYEDPYYGYDDGYAVRGRGGGRGGRGAPPPPRGRGAPPPRGRAGYSQRGAPLGPPRGSRGGRGGPAQQQRGRGSRGSRGNRGGNVGGKRKADGYNQPDSKRRQTNNQQNWGSQPIAQQPLQQGGDYSGNYGYNNDNQEFYQDTYGQQWK

binding: binds
B2: NONO (protein, UniProt Q15233 1-471)
chain: MQSNKTFNLEKQNHTPRKHHQHHHQQQHHQQQQQQPPPPPIPANGQQASSQNEGLTIDLKNFRKPGEKTFTQRSRLFVGNLPPDITEEEMRKLFEKYGKAGEVFIHKDKGFGFIRLETRTLAEIAKVELDNMPLRGKQLRVRFACHSASLTVRNLPQYVSNELLEEAFSVFGQVERAVVIVDDRGRPSGKGIVEFSGKPAARKALDRCSEGSFLLTTFPRPVTVEPMDQLDDEEGLPEKLVIKNQQFHKEREQPPRFAQPGSFEYEYAMRWKALIEMEKQQQDQVDRNIKEAREKLEMEMEAARHEHQVMLMRQDLMRRQEELRRMEELHNQEVQKRKQLELRQEEERRRREEEMRRQQEEMMRRQQEGFKGTFPDAREQEIRMGQMAMGGAMGINNRGAMPPAPVPAGTPAPPGPATMMPDGTLGLTPPTTERFGQAATMEGIGAIGGTPPAFNRAAPGAEFAPNKRRRY
